Measurements published in article PMC7532574.
Results are given in words; binding and its absence hold for the method and conditions named. In cells and extracts the contact can be indirect. Some results given as binding are weak or reduced against the parent protein; the word gives no strength.

Sequences of proteins named here, by UniProt entry; tags and fusion partners are left off.
UniProt Q15004: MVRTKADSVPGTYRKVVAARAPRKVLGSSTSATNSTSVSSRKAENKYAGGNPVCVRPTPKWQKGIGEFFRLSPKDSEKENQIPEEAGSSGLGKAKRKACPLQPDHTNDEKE
UniProt O00762: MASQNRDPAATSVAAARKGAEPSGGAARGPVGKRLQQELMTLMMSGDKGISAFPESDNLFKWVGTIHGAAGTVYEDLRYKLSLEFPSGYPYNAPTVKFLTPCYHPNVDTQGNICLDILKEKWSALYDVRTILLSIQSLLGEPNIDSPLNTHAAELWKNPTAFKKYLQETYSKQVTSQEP

Biological target: KIAA0101 protein containing the wt KEN box (HA-wt-KIAA0101) (human) (UniProt Q15004)
Assay: co-IP; lysates of SK-MES-1 cells transfected 48 h with HA-KIAA0101 (wt or mutant KEN box); precleared, precipitated with anti-HA antibody (2 ug/ml) and protein A or G agarose/Sepharose beads, 2 h at room temperature or overnight at 4 °C; washed with PBS; western blotting

binding: binds
Substance: UbcH10 (from UniProt O00762 1-179) (enzyme)
